According to patent US20250376446A1, “[…] OF A SYNTHETIC CANNABINOID” (Jazz Pharmaceuticals Research UK Limited, priority 2022, published 2025):

Test system: mouse model of generalised seizure (tonic hind limb extensor convulsions)
Experiment: Maximal electroshock seizure threshold (MEST) test in the mouse
Conditions: i.p., 2.5 mg/kg, 30 min post dose
Procedure: The efficacy of compound 1 was tested in a mouse model of generalised seizure, the maximal electroshock seizure threshold (MEST) test.
The maximal electroshock seizure threshold (MEST) test is widely utilized preclinically to evaluate pro-or anti-convulsant properties of test compounds (Loscher et al., 1991).
In the MEST test the ability of a drug to alter the seizure threshold current required to induce hind limb tonic extensor convulsions is measured according to an “up and down” method of shock titration (Kimball et al., 1957). An increase in seizure threshold is indicative of anti-convulsant effect.
The ability of a test compound to alter the stimulus intensity, expressed as current (mA), required to induce the presence of tonic hind limb extensor convulsions, is assessed in the MEST.
Naïve mice were acclimatised to the procedure room in their home cages for up to 7 days, with food and water available ad libitum.
All animals were weighed at the beginning of the study and randomly assigned to treatment groups based on a mean distribution of body weight across groups. […]
Test compound effects were also calculated as percentage change in CC50 from the vehicle control group.
Significant difference between drug-treated animals and controls were assessed according to Litchfield and Wilcoxon (1949).

With `CN1C(=O)CN=C(c2ccccc2)c2cc(Cl)ccc21` [Diazepam, diazepam, reference compound] the “CC50 +/- SEM” value was 78.5 ± 1.0 mA and the “CC50 +/- SEM” value (listed as diazepam) was 78.5 mA.
